# Results of single-concentration screens

Measurements from “University of Dundee, Small-Polar-MMV Screening Library” (2021), ChEMBL document CHEMBL3988442.

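Phenotypic screen: M. tuberculosis growth, cholesterol and DPPC medium, 4 days; the read-out is not stated. Concentration: 50 µM. Direction is inferred from retests: higher values go with more growth inhibition. About 69,000 compounds were tested under these conditions; 0.54% (about 370) showed 50% or more at least once.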

Each number is a percent effect as filed. The record does not define 0% and 100%; most values in the screen are far below 50% and negative numbers occur (in some assays of this library far below -100). Compounds were drawn at random from those tested, without regard to their results. Two or more numbers in one place are separate tests of the same structure; such repeats can differ widely.

SMILES | effect
CC(NCC(=O)N(C)C1CC1)c1ccc(S(C)(=O)=O)c(F)c1 (configuration not stated) | 7.305
Cc1nc(CNC2CC(=O)N(CCc3cccc(Cl)c3)C2)c[nH]1 (configuration not stated) | -3.302
Cc1cccc(CN2CC3(CCN(C4CCOC4)CC3)OCC2=O)n1.O=C(O)C(F)(F)F.O=C(O)C(F)(F)F (configuration not stated) | 6.853
Cc1nc(CN(C)C2CCN(Cc3c(C)noc3C)C2)no1 (configuration not stated) | 6.303
COCc1nc(CNc2cc(C)nc(-c3ccccc3)n2)no1 | 15.31
COCCCn1ccc(NCc2cnc(C(C)(C)C)s2)n1 | 2.499
COC[C@@H]1CCC[C@]12CN(Cc1cccc(C)n1)CCO2.O=C(O)C(F)(F)F.O=C(O)C(F)(F)F | -20.23
c1ccc(CCN2CCOC(CNc3cccnn3)C2)nc1 (configuration not stated) | -34.99
O=C(c1cnc(COc2ccccc2)nc1O)N1CCC(F)(F)CC1 | -39.62
CC(C(=O)N(C)Cc1nnc2n1CCC2)S(C)(=O)=O (configuration not stated) | 0.9562
CCCn1nnnc1COc1cc(OC)ccc1C(=O)OC | -15.98
[H][C@@]12CCN[C@]1([H])CN(S(=O)(=O)c1ccc(C)cc1)C2 | -0.8558
Cn1cc(C(=O)N2CCC(c3ncc[nH]3)CC2)cn1 | -0.5282
CCOc1ccc(CN(C)C(=O)COc2ccc(C)nc2)cc1 | 32.85
NC(=O)CN1CCCN(C(=O)c2ccn(-c3cccc(F)c3)n2)CC1 | -7.092
Cc1ccsc1CCNC(=O)CCC1CCCCN1C (configuration not stated) | -18.2
CN(C)c1ncc2c(n1)CN(C1CC(C)(C)NC(C)(C)C1)C2=O | 16.59
Cc1nn(C)c(Cl)c1C1CCCN1Cc1nnc(C2CC2)n1C (configuration not stated) | -6.886
COc1ccc(C(N)=O)cc1NCc1noc(-c2ccsc2)n1 | 9.647 & 15.6
Cc1nc(CN2CCN(C(C)c3nc(C4CC4)no3)CC2)no1 (configuration not stated) | -8.141
[H][C@]12CC[C@]([H])(CN(C(=O)c3ccc(Cl)cc3)C1)N(CCOC)C2 | 2.55
Cc1noc(C)c1CC(=O)N[C@@H]1CC[C@@H](Oc2ccccc2)[C@@H]1O | -10.34 & 1.585
Cc1cccc(CN2Cc3ncn(C)c3C(COCC(=O)N(C)C)C2)n1.O=C(O)C(F)(F)F.O=C(O)C(F)(F)F.O=C(O)C(F)(F)F (configuration not stated) | 1.769
COc1cccc(OC)c1CNC(Cc1ccsc1)c1ccc(C)cn1 (configuration not stated) | 43.42
COc1c(Br)c(C(=O)NC2CCCC2)nn1C | -5.386
CCn1c(CN2CCC(O)(c3ccc4c(c3)OCO4)CC2)cnc1SC.O=C(O)CC(O)(CC(=O)O)C(=O)O | -14.71 & -13.06
CN(C)c1ccc(C(=O)N2CCC(c3n[nH]c(C4CC4)n3)CC2)cc1 | -19.49
CCn1cc(CN2CCCN(C3Cc4ccccc4C3)CC2)c(C)n1 | -18.42
CC(=O)N1CCN(c2ccccc2CNc2cncc(C)c2)CC1 | -2.141
Cc1cc(NC(=O)N2CCC[C@@H]2CO)nn1-c1ccccc1Cl | 14.29
CCCn1ccc(C(=O)N2CCC(C)CC2)n1 | 0.5246
CN(C(=O)Nc1ccccn1)C1CCCN(c2ccccc2)C1=O (configuration not stated) | -6.542
CC(c1c(F)cccc1F)N1CCN(Cc2nccn2C)CC1 (configuration not stated) | -18.16
O=C(CN1CCCC1Cn1cncn1)Nc1nccs1 (configuration not stated) | 6.326
Cc1nn(C)cc1CN1CCCn2nc(CNC(=O)C3CCC3)cc2C1 | -2.628 & -5.491
Cc1ccc(CN2CCC3(C2)C(=O)N(CC(N)=O)c2ccccc23)s1 (configuration not stated) | -7.055 & 5.852
Cn1ccnc1CN1CCCCC1c1nc(-c2ccccc2)no1 (configuration not stated) | -8.372
c1ccc2c(c1)COC1(CCCCC1)N2 | 7.02
COCCO[C@H]1CCN(c2ccc(C)nn2)[C@H]1Cc1cccnc1.O=C(O)C(F)(F)F.O=C(O)C(F)(F)F | -23.31

Some entries from above, unchanged:

| SMILES | effect |
|---|---|
| `[H][C@@]12CCN[C@]1([H])CN(S(=O)(=O)c1ccc(C)cc1)C2` | -0.8558 |
| `CN(C)c1ncc2c(n1)CN(C1CC(C)(C)NC(C)(C)C1)C2=O` | 16.59 |